Assay results published in publication PMC7862700.
The entries are a selection whose mix differs from that of the whole data set. At the low end of the ranking, values are background and their order means little.

target: T1, SPDEF (UniProt O95238); assay: DAPPL (digital affinity profiling via proximity ligation, sequencing); details: 10 mM Tris-HCl pH 7.5, 50 mM NaCl, 1 mM DTT, 4% glycerol, room temperature, 30 min; GST-TFs on glutathione beads, 16-mer random dsDNA library, 0.1% …; high values mean tight binding; double strand, one strand shown; scale: fold enrichment (6-mer frequency, TF over GST control)
T1 sequence: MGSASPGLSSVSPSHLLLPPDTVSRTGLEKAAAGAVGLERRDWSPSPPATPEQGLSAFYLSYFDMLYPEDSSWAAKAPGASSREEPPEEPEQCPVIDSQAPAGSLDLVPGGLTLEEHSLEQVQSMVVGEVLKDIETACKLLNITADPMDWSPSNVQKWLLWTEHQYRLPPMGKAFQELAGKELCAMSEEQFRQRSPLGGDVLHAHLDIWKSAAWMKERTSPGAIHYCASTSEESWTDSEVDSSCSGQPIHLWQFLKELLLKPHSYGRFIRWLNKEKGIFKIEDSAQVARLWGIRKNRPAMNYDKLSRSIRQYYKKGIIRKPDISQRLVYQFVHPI

Row | Sequence | binding signal
1 | TCTGGA | 0.962
2 | TTCGGC | 0.927
3 | CATACC | 1.14
4 | CGGTTT | 1.36
5 | CTTGAA | 1.13
6 | CCTTCT | 1.84
7 | ATCAAC | 1.06
8 | CCGAGC | 1.06
9 | CACTGT | 1.11
10 | AAAACG | 1.2
11 | TAAAGC | 0.984
12 | AGATGT | 0.817
13 | CTCGCG | 1.4
14 | TTACGG | 1.32
15 | TGCACA | 1.21
16 | CGCGTT | 0.865
17 | CGCCCA | 0.956
18 | GCCCCC | 0.962
19 | ACGAAT | 1.13
20 | AAAGGC | 0.882

Row | Sequence | binding signal
21 | TATCCA | 1.21
22 | GTAGCT | 0.923
23 | TGCCAC | 1.15
24 | CAGCCT | 0.988
25 | ACTAAT | 1.21
26 | TACGCG | 1.23
27 | AAAGCC | 0.863
28 | TGATAA | 0.976
29 | ATGTGC | 1.23
30 | TCCACT | 1.37
31 | GCAACC | 1.13
32 | CAAAAG | 0.965
33 | TCCTAG | 1.4
34 | TTGAGC | 1.02
35 | TTCACG | 1.34
36 | TTGGGG | 1.17
37 | TAGACT | 0.966
38 | TGGCGA | 0.973
39 | GCGCGC | 0.817
40 | ATGCTC | 1.43

Part of the list above, set out differently.
Row,Sequence,binding signal
21,TATCCA,1.21
35,TTCACG,1.34
